Experimental data: doi:10.1101/2024.11.15.623798
These are yes or no findings as the source states them, for the method shown. Binding seen in cells or lysates may run through a third protein. These calls come from enrichment with a bait or labelling near it, and not all partners need be listed.

Sequences of proteins named here, by UniProt entry; tags and fusion partners are left off. Residues count along the entry.
UniProt Q03265, residues 44-553: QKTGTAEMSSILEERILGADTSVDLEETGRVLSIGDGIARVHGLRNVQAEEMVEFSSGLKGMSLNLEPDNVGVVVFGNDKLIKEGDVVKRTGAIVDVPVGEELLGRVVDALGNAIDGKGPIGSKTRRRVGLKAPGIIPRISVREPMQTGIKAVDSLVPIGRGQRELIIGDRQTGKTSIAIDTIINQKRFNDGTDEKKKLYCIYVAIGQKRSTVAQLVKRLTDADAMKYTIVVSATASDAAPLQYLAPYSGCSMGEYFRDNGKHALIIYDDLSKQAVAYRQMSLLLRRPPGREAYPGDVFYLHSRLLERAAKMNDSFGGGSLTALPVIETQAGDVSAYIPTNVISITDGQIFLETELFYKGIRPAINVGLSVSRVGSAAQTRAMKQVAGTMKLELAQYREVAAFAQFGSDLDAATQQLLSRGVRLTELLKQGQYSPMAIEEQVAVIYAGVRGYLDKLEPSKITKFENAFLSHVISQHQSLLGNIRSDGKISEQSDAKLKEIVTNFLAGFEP
UniProt P47856: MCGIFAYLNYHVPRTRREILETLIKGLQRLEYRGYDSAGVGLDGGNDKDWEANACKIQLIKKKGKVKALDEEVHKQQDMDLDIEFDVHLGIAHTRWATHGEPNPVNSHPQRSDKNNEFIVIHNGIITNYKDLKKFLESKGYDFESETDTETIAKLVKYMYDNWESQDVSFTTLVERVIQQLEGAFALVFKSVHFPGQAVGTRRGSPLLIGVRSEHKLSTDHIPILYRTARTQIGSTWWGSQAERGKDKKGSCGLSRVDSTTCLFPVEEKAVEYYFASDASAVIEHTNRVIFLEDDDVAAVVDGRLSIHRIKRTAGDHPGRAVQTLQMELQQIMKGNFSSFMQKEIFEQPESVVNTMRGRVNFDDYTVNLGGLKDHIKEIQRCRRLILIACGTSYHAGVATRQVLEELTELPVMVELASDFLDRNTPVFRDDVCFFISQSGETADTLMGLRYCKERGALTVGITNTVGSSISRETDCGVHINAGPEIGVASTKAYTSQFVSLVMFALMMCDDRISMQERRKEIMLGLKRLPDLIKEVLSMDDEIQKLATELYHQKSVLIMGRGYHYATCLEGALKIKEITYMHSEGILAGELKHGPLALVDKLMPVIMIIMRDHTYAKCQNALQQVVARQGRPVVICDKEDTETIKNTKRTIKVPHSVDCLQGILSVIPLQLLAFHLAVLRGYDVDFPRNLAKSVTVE

T1: HKDC1 (HK domain containing 1) (mouse (endogenous in small intestinal mucosa)) (UniProt Q91W97)
T1 sequence: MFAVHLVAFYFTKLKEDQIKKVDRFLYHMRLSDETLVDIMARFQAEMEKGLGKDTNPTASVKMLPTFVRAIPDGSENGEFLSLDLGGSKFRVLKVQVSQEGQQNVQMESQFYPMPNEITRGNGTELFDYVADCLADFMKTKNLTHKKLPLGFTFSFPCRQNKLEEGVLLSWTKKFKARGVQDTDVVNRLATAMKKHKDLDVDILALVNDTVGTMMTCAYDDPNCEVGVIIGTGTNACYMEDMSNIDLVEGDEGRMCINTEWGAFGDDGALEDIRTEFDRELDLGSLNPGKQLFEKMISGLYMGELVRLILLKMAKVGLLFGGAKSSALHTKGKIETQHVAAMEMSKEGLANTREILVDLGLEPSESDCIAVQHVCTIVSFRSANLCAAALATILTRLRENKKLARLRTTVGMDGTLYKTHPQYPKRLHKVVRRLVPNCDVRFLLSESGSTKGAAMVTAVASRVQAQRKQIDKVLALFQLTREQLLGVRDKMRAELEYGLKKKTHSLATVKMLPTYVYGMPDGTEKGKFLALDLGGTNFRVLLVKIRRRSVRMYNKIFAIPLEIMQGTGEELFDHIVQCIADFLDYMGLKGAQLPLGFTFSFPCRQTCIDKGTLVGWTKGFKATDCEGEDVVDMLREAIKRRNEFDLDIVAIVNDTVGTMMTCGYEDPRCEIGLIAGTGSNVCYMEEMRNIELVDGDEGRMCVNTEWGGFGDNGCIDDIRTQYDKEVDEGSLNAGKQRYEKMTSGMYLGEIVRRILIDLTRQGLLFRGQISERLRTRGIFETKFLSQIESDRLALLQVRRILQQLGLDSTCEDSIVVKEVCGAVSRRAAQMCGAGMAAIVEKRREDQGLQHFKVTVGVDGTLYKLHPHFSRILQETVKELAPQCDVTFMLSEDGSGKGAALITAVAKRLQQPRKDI

B1: SLC25A5 (Solute Carrier Family 25 Member 5 also referred to as ADP/ATP Translocase 2) (protein, UniProt P51881 1-298)
chain: MTDAAVSFAKDFLAGGVAAAISKTAVAPIERVKLLLQVQHASKQITADKQYKGIIDCVVRIPKEQGVLSFWRGNLANVIRYFPTQALNFAFKDKYKQIFLGGVDKRTQFWRYFAGNLASGGAAGATSLCFVYPLDFARTRLAADVGKAGAEREFKGLGDCLVKIYKSDGIKGLYQGFNVSVQGIIIYRAAYFGIYDTAKGMLPDPKNTHIFISWMIAQSVTAVAGLTSYPFDTVRRRMMMQSGRKGTDIMYTGTLDCWRKIARDEGSKAFFKGAWSNVLRGMGGAFVLVLYDEIKKYT
B2: HK2 (enzyme, UniProt O08528 1-917)
chain: MIASHMIACLFTELNQNQVQKVDQYLYHMRLSDETLLEISRRFRKEMEKGLGATTHPTAAVKMLPTFVRSTPDGTEHGEFLALDLGGTNFRVLRVRVTDNGLQRVEMENQIYAIPEDIMRGSGTQLFDHIAECLANFMDKLQIKEKKLPLGFTFSFPCHQTKLDESFLVSWTKGFKSSGVEGRDVVDLIRKAIQRRGDFDIDIVAVVNDTVGTMMTCGYDDQNCEIGLIVGTGSNACYMEEMRHIDMVEGDEGRMCINMEWGAFGDDGTLNDIRTEFDREIDMGSLNPGKQLFEKMISGMYMGELVRLILVKMAKAELLFQGKLSPELLTTGSFETKDVSDIEDDKDGIQKAYQILVRLGLSPLQEDCVATHRICQIVSTRSASLCAATLAAVLWRIKENKGEERLRSTIGVDGSVYKKHPHFAKRLHKAVRRLVPDCDVRFLRSEDGSGKGAAMVTAVAYRLADQHRARQKTLESLKLSHEQLLEVKRRMKVEMEQGLSKETHEAAPVKMLPTYVCATPDGTEKGDFLALDLGGTNFRVLLVRVRNGKRRGVEMHNKIYSIPQEVMHGTGEELFDHIVQCIADFLEYMGMKGVSLPLGFTFSFPCQQNSLDQSILLKWTKGFKASGCEGEDVVTLLKEAIRRREEFDLDVVAVVNDTVGTMMTCGYEDPHCEVGLIVGTGSNACYMEEMRNVELVDGEEGRMCVNMEWGAFGDNGCLDDLRTVFDVAVDELSLNPGKQRFEKMISGMYLGEIVRNILIDFTKRGLLFRGRISERLKTRGIFETKFLSQIESDCLALLQVRAILRHLGLESTCDDSIIVKEVCTVVARRAAQLCGAGMAAVVDKIRENRGLDNLKVTVGVDGTLYKLHPHFAKVMHETVRDLAPKCDVSFLESEDGSGKGAALITAVACRIREAGQR

Biological target: T1, HKDC1 (HK domain containing 1) (mouse (endogenous in small intestinal mucosa))
Assay: affinity purification with mass spectrometry

binding, binds:
ATP5A1 (ATP Synthase Subunit Alpha 1) (from UniProt Q03265 44-553), GFPT1 (Glutamine-Fructose-6-Phosphate Transaminase 1) (from UniProt P47856 1-697) (enzyme), HK1 (from UniProt P17710-3) (enzyme), B1, B2
